The target in assay [1] is T1, PNPT18 (PNPase tagged with T18) (Escherichia coli) (UniProt P05055).
T1 sequence: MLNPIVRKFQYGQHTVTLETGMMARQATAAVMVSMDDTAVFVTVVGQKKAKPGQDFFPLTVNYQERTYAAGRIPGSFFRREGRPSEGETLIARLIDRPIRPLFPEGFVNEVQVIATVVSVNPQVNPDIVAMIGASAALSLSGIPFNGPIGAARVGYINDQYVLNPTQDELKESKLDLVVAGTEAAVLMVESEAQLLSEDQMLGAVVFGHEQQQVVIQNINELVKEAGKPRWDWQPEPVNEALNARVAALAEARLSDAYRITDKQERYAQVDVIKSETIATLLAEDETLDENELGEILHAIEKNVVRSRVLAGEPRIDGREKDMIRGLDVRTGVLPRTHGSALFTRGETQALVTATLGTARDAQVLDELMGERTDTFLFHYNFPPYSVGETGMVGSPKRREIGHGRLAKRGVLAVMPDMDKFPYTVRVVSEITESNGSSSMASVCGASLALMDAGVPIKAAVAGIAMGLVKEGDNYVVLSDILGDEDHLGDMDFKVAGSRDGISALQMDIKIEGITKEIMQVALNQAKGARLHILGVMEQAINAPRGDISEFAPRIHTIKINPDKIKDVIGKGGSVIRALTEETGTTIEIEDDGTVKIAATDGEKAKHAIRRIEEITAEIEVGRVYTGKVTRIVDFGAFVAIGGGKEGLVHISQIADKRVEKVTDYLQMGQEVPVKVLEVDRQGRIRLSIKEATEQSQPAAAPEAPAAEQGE
Put plainly: two-hybrid; bacterial two-hybrid (CyaA T25/T18) in E. coli DHP1; beta-galactosidase activity, relative to T25RhlB^wt set as 100%.

Assay [2] deals with T1, PNPT18 (PNPase tagged with T18) (Escherichia coli). The experiment in a line: two-hybrid; bacterial two-hybrid (CyaA T25/T18) in E. coli DHP1; colony colour on a MacConkey/maltose plate.

Numbering of substitutions follows the chain as printed. In names and notes the source's numbering stands. These are yes or no findings as the source states them, for the method shown. Some entries that bind do so weakly or less than the wild type. Where a sequence is shown, tags or fusion partners need not be part of it.

B1: FlagRhlB^wt (Flag-tagged wild-type RhlB) (enzyme, Escherichia coli, UniProt P0A8J8 1-421, looked up)
chain: MSKTHLTEQKFSDFALHPKVVEALEKKGFHNCTPIQALALPLTLAGRDVAGQAQTGTGKTMAFLTSTFHYLLSHPAIADRKVNQPRALIMAPTRELAVQIHADAEPLAEATGLKLGLAYGGDGYDKQLKVLESGVDILIGTTGRLIDYAKQNHINLGAIQVVVLDEADRMYDLGFIKDIRWLFRRMPPANQRLNMLFSATLSYRVRELAFEQMNNAEYIEVEPEQKTGHRIKEELFYPSNEEKMRLLQTLIEEEWPDRAIIFANTKHRCEEIWGHLAADGHRVGLLTGDVAQKKRLRILDEFTRGDLDILVATDVAARGLHIPAVTHVFNYDLPDDCEDYVHRIGRTGRAGASGHSISLACEEYALNLPAIETYIGHSIPVSKYNPDALMTDLPKPLRLTRPRTGNGPRRTGAPRNRRRSG
notes: RNA helicase B (RhlB) of Escherichia coli; also called pFlagRhlB^wt
For the molecule B1, the binding entry in assay [1] and in assay [2] was “binds” throughout.

B2: FlagRhlB^P238L (Flag-tagged RhlB^P238L) (enzyme, Escherichia coli, UniProt P0A8J8 1-421, looked up)
chain: B1 chain with P238L
notes: RNA helicase B (RhlB) of Escherichia coli with P238L, introduced into pFlagRhlB by site-directed mutagenesis; also called pFlagRhlB^P238L
For B2, the binding entry in assay [1] and in assay [2] was “binds” in each case.

For the origin of these results see PMC4705995, “The Protein Interaction of RNA Helicase B (RhlB) and Polynucleotide Phosphorylase (PNPase) Contributes to the Homeostatic Control of Cysteine in Escherichia coli*” (The Journal of Biological Chemistry, 2015).
